Results reported in doi:10.64898/2025.12.30.696989.
Results are given in words; binding and its absence hold for the method and conditions named. Binding seen in cells or lysates may run through a third protein. Some results given as binding are weak or reduced against the parent protein; the word gives no strength. Sequences can lack the tags named with a protein.

Columns and labels:
Experiment in all cases: co-IP
[1] = target: T1, myc-Cnc1-YFP (wild-type yeast cyclin C) (S. cerevisiae) (UniProt P47821)
T1 sequence: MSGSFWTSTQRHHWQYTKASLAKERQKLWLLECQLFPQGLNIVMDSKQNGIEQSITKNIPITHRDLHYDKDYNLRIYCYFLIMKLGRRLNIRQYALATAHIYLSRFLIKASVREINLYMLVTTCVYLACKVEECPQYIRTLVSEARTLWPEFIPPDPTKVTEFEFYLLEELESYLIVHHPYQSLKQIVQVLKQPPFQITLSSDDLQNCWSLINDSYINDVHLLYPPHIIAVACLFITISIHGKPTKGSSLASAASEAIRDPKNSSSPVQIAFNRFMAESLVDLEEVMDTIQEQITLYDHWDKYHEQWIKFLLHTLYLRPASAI

[2] = target: T2, myc-Cnc1-YFP E169A (S. cerevisiae) (UniProt P47821)
T2 sequence: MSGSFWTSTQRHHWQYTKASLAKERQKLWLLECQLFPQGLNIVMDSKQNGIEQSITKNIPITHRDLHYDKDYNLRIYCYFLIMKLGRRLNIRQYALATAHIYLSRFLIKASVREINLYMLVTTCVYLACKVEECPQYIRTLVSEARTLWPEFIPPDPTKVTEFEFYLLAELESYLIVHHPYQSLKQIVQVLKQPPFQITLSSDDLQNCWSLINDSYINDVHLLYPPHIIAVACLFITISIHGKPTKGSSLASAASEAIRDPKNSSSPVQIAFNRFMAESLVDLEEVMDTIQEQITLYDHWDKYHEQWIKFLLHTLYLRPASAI

[3] = target: T3, myc-Cnc1-YFP K130A (S. cerevisiae) (UniProt P47821)
T3 sequence: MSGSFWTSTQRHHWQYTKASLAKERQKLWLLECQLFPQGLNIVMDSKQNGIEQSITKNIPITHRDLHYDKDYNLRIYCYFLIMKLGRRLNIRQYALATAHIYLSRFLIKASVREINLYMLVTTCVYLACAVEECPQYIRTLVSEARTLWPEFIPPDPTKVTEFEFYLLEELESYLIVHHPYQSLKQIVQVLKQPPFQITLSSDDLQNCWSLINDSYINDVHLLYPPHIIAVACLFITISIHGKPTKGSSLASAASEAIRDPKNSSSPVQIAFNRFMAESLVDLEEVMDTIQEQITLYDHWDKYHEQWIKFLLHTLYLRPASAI

[4] = target: T4, myc-Cnc1-YFP N213A (S. cerevisiae) (UniProt P47821)
T4 sequence: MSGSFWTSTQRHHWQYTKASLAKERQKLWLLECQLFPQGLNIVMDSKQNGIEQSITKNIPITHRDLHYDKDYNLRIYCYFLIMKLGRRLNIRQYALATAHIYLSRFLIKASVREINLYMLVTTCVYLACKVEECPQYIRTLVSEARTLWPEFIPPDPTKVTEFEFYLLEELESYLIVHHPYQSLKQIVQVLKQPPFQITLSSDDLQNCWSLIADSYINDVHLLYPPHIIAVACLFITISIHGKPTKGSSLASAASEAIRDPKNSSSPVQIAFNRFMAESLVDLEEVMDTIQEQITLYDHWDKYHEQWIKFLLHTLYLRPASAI

[5] = target: T5, myc-Cnc1-YFP R274A (S. cerevisiae) (UniProt P47821)
T5 sequence: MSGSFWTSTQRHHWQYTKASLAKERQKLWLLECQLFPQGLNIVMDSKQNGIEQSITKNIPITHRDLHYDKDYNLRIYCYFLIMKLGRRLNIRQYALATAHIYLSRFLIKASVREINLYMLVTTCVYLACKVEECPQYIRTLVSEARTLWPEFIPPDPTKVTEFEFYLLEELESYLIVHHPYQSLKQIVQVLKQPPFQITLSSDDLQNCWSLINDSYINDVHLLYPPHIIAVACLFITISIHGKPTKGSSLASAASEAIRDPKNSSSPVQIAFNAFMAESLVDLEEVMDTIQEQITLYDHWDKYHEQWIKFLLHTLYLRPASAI

Measured: binding

B1: HA epitope tagged CDK8 (Cdk8-HA), yeast (enzyme, UniProt P39073 1-555)
chain: MYNGKDRAQNSYQPMYQRPMQVQGQQQAQSFVGKKNTIGSVHGKAPMLMANNDVFTIGPYRARKDRMRVSVLEKYEVIGYIAAGTYGKVYKAKRQINSGTNSANGSSLNGTNAKIPQFDSTQPKSSSSMDMQANTNALRRNLLKDEGVTPGRIRTTREDVSPHYNSQKQTLIKKPLTVFYAIKKFKTEKDGVEQLHYTGISQSACREMALCRELHNKHLTTLVEIFLERKCVHMVYEYAEHDLLQIIHFHSHPEKRMIPPRMVRSIMWQLLDGVSYLHQNWVLHRDLKPANIMVTIDGCVKIGDLGLARKFHNMLQTLYTGDKVVVTIWYRAPELLLGARHYTPAVDLWSVGCIFAELIGLQPIFKGEEAKLDSKKTVPFQVNQLQRILEVLGTPDQKIWPYLEKYPEYDQITKFPKYRDNLATWYHSAGGRDKHALSLLYHLLNYDPIKRIDAFNALEHKYFTESDIPVSENVFEGLTYKYPARRIHTNDNDIMNLGSRTKNNTQASGITAGAAANALGGLGVNRRILAAAAAAAAAVSGNNASDEPSRKKNRR
binds: [1] | [2] | [3]

B2: Dnm1-myc (enzyme, UniProt P54861 1-757)
chain: MASLEDLIPTVNKLQDVMYDSGIDTLDLPILAVVGSQSSGKSSILETLVGRDFLPRGTGIVTRRPLVLQLNNISPNSPLIEEDDNSVNPHDEVTKISGFEAGTKPLEYRGKERNHADEWGEFLHIPGKRFYDFDDIKREIENETARIAGKDKGISKIPINLKVFSPHVLNLTLVDLPGITKVPIGEQPPDIEKQIKNLILDYIATPNCLILAVSPANVDLVNSESLKLAREVDPQGKRTIGVITKLDLMDSGTNALDILSGKMYPLKLGFVGVVNRSQQDIQLNKTVEESLDKEEDYFRKHPVYRTISTKCGTRYLAKLLNQTLLSHIRDKLPDIKTKLNTLISQTEQELARYGGVGATTNESRASLVLQLMNKFSTNFISSIDGTSSDINTKELCGGARIYYIYNNVFGNSLKSIDPTSNLSVLDVRTAIRNSTGPRPTLFVPELAFDLLVKPQIKLLLEPSQRCVELVYEELMKICHKCGSAELARYPKLKSMLIEVISELLRERLQPTRSYVESLIDIHRAYINTNHPNFLSATEAMDDIMKTRRKRNQELLKSKLSQQENGQTNGINGTSSISSNIDQDSAKNSDYDDDGIDAESKQTKDKFLNYFFGKDKKGQPVFDASDKKRSIAGDGNIEDFRNLQISDFSLGDIDDLENAEPPLTEREELECELIKRLIVSYFDIIREMIEDQVPKAVMCLLVNYCKDSVQNRLVTKLYKETLFEELLVEDQTLAQDRELCVKSLGVYKKAATLISNIL
binds: all assays above
